Library screen at single concentrations

The values are deposited in ChEMBL (CHEMBL3988442, “University of Dundee, Small-Polar-MMV Screening Library” (2021)).

Mtb cholesterol medium: 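Whole-cell growth test on Mycobacterium tuberculosis, read after 4 days in a medium based on cholesterol and the lipid DPPC; the read-out is not stated. Compounds at 50 µM. Direction is inferred from retests: higher values go with more growth inhibition. Size under these conditions: about 69,000 compounds, about 370 of them at 50% or above in at least one test.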
Mtb glucose medium: 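Whole-cell growth test on Mycobacterium tuberculosis, read after 3 days in glucose-containing 7H9 medium; the read-out is not stated. Compounds at 50 µM. Direction is inferred from retests: higher values go with more growth inhibition. About 69,000 compounds were tested under these conditions; 1.1% (about 760) showed 50% or more at least once.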

The filed quantity is “Percent Effect” (%). The record does not define 0% and 100%; most values in the screen are far below 50% and negative numbers occur (in some assays of this library far below -100). Compounds were drawn at random from those tested, without regard to their results. Two or more numbers in one place are separate tests of the same structure; such repeats can differ widely.

structure: O=C1CC(c2cccnc2)c2c(c(C(=O)O)cn2-c2ccccc2F)N1 (stereo not given)
Mtb cholesterol medium: -12.31
Mtb glucose medium: 10.42

structure: COCC(=O)N1CCC(c2nc3ccc(-c4ccccc4)cn3n2)CC1
Mtb cholesterol medium: -11.95
Mtb glucose medium: 11.63

structure: Cc1ccsc1-c1nccn1CCS(=O)(=O)N1CCCC1
Mtb cholesterol medium: -15.05
Mtb glucose medium: -4.545

structure: COc1ccc(-n2nnnc2C(C)(C)Nc2ccc(C)cc2C)cc1
Mtb cholesterol medium: -22.51
Mtb glucose medium: -32.64

structure: CCn1ccnc1SCCn1cnc2ccsc2c1=O
Mtb cholesterol medium: -21.46
Mtb glucose medium: 8.043

structure: CCc1ncc(C(=O)N(C)CCc2nc3cc(OC)ccc3[nH]2)cn1
Mtb cholesterol medium: -24.42
Mtb glucose medium: -62.26

structure: CNC(=O)C1Cn2ccnc2C2(CCN(Cc3cccs3)CC2)O1.O=C(O)C(F)(F)F.O=C(O)C(F)(F)F (stereo not given)
Mtb cholesterol medium: -20.48 and -7.074
Mtb glucose medium: -56.57

structure: O=C1OCCC1N1CCN(c2ccccn2)CC1 (stereo not given)
Mtb cholesterol medium: -6.183
Mtb glucose medium: -5.498 and 8.171

structure: CN(Cc1ccoc1)C(=O)C1(Oc2ccc(Cl)cc2)CCNCC1
Mtb cholesterol medium: 1.8
Mtb glucose medium: 21.79

structure: c1ncc(Nc2nccc(C3CCCCN3CC3CCCCC3)n2)cn1 (stereo not given)
Mtb cholesterol medium: -19.13
Mtb glucose medium: -8.129

structure: CC(NC(=O)NCCN1CCCC1)c1nncn1C (stereo not given)
Mtb cholesterol medium: -2.079
Mtb glucose medium: -25.8 and -1.726

structure: CCN1CCN(C[C@@H]2CN(Cc3cnc(C(C)C)nc3)C[C@@H]2CO)CC1
Mtb cholesterol medium: 4.706
Mtb glucose medium: -2.52

structure: CNS(=O)(=O)CCCN1CCCC1c1cc(C)on1 (stereo not given)
Mtb cholesterol medium: -1.715
Mtb glucose medium: 1.14

structure: COc1ccc(OCc2cc(C(=O)N3CCCCO3)n[nH]2)c(Cl)c1
Mtb cholesterol medium: 32.65
Mtb glucose medium: 46.75

structure: CN(C)C(=O)c1ccc(N2CCC3(CCC(=O)N(CCO)C3)CC2)nc1
Mtb cholesterol medium: -2.844
Mtb glucose medium: 2.765 and 6.238

structure: O=C(O)C(F)(F)F.O=C(c1ccco1)N1CC2(CCNCC2)c2cc(Cl)ccc21
Mtb cholesterol medium: -1.796 and -0.05627
Mtb glucose medium: -10.66

structure: Cn1cccc1C(=O)N1CCC2(CCCN2Cc2ccccc2)CC1.O=C(O)C(F)(F)F
Mtb cholesterol medium: -23.04
Mtb glucose medium: -28.71

structure: CCCn1ccnc1CN1CCCC1c1ccccn1 (stereo not given)
Mtb cholesterol medium: 20.88
Mtb glucose medium: 12.94 and 111.5

structure: CCc1ncc(S(C)(=O)=O)c(C2CCCNC2)n1 (stereo not given)
Mtb cholesterol medium: -39.17
Mtb glucose medium: -15.2

structure: CC1CCc2nc(O)c(C(=O)NCCCN3CCN(C)CC3)cc2C1 (stereo not given)
Mtb cholesterol medium: 12.73 and 2.402
Mtb glucose medium: -11.84

structure: CCS(=O)(=O)N1CCc2ccc(NC(=O)Nc3cccc(F)c3)cc21
Mtb cholesterol medium: -23.31
Mtb glucose medium: 6.955

structure: O=C(Nc1cc(C(F)(F)F)c[nH]c1=O)c1ccco1
Mtb cholesterol medium: 0.1668
Mtb glucose medium: 9.535

structure: Cc1ccc(CNc2ccccc2SCCC(N)=O)s1
Mtb cholesterol medium: -8.603
Mtb glucose medium: 10.21

structure: COCc1nc(CNc2cccc(-c3nc(C)c(C)o3)c2)cs1
Mtb cholesterol medium: 34.1
Mtb glucose medium: 42.17

structure: COCC(C)NC(=O)CN1CCC(C)CC1 (stereo not given)
Mtb cholesterol medium: 7.975
Mtb glucose medium: 5.305

structure: CN(C)C(=O)N1CCN(C(=O)c2ccc(Cl)cc2)CC2(CNC(=O)C2)C1 (stereo not given)
Mtb cholesterol medium: -17.47
Mtb glucose medium: -17.49

structure: COCCOc1ccc(NC(=O)C2CCCN(C(N)=O)C2)cn1 (stereo not given)
Mtb cholesterol medium: -6.147
Mtb glucose medium: -6.983

structure: O=C(Cn1nc(-c2ccc(F)cc2)oc1=O)NCC1CCCO1 (stereo not given)
Mtb cholesterol medium: -14
Mtb glucose medium: 4.903 and -25.45

structure: CN(CCc1ccccc1)Cc1nc2c(cnn2C)c(=O)[nH]1
Mtb cholesterol medium: 2.823
Mtb glucose medium: 14.59

structure: CCOc1ccc(NC(=O)Cn2cc(I)cn2)cc1
Mtb cholesterol medium: 8.939
Mtb glucose medium: -13.79

structure: Cc1nnc(CN(C)C2CCN(CCc3cccs3)C2)n1C (stereo not given)
Mtb cholesterol medium: -6.729 and -4.156
Mtb glucose medium: -2.146

structure: CN(C(=O)c1ccc(C#N)cc1)c1nnc(C2CCOC2)s1 (stereo not given)
Mtb cholesterol medium: -1.958 and -1.806
Mtb glucose medium: 3.487

structure: [H][C@]12CN(Cc3ccccn3)CCN1C[C@H](c1ccccc1)[C@H]2C(=O)NC
Mtb cholesterol medium: 11.48
Mtb glucose medium: 19.69

structure: CC(Cn1cccn1)C(=O)N1CCCN(Cc2cscn2)CC1 (stereo not given)
Mtb cholesterol medium: -2.522
Mtb glucose medium: 8.812

structure: CCn1cnnc1C1CCN(C(=O)c2cccc(N(C)C)c2)CC1
Mtb cholesterol medium: 3.844
Mtb glucose medium: 16.61

structure: c1ccc(-c2cccc(-c3ccn(CCN4CCCCC4)n3)c2)nc1
Mtb cholesterol medium: 30.46
Mtb glucose medium: 4.736 and 28.58

structure: Cc1cccc(NC(=O)CNC(=O)c2ccccc2F)c1
Mtb cholesterol medium: -17.82
Mtb glucose medium: -8.877

The last 4 entries again:

With CC(Cn1cccn1)C(=O)N1CCCN(Cc2cscn2)CC1 (stereo not given) the screen gave Mtb cholesterol medium: -2.522%; Mtb glucose medium: 8.812%.
With CCn1cnnc1C1CCN(C(=O)c2cccc(N(C)C)c2)CC1 the screen gave Mtb cholesterol medium: 3.844%; Mtb glucose medium: 16.61%.
With c1ccc(-c2cccc(-c3ccn(CCN4CCCCC4)n3)c2)nc1 the screen gave Mtb cholesterol medium: 30.46%; Mtb glucose medium: 4.736% and 28.58%.
With Cc1cccc(NC(=O)CNC(=O)c2ccccc2F)c1 the screen gave Mtb cholesterol medium: -17.82%; Mtb glucose medium: -8.877%.